Source: patent US6756373B1, “Pharmaceutically active compounds” (Pfizer Inc., priority 1999, dated 2004)
Some results were stated once for a whole list of compounds, not compound by compound.

These molecules were tested against cGMP PDE5 (UniProt O76074) (assay: Phosphodiesterase (PDE) inhibitory activity: in vitro inhibition of cGMP PDE5 (batch method or scintillation proximity assay)). Conditions: read-out: IC50 values for the PDE5 enzyme, stated in text as 'less than about'.

Structure (SMILES) | IC50
CCCCOc1ncc(I)cc1-c1nc2c(CC)n(C3CN(C(=O)OC(C)(C)C)C3)nc2c(=O)[nH]1 [Example 44c] | < 10 nM
CCCCOc1ncc(C(C)=O)cc1-c1nc2c(CC)n(CCOC)nc2c(=O)[nH]1 [Example 16, 5-(5-Acetyl-2-butoxy-3-pyridinyl)-3-ethyl-2-(2-methoxyethyl)-2,6-dihydro-7H-pyrazolo[4,3-d]pyrimidin-7-one] | < 10 nM
CCCOc1ncc(N(S(C)(=O)=O)S(C)(=O)=O)cc1-c1nc2c(CCC)nn(C)c2c(=O)[nH]1 [Example 76, N-[5-(1-Methyl-7-oxo-3-propyl-6,7-dihydro-1H-pyrazolo[4,3-d]pyrimidin-5-yl)-6-propoxy-3-pyridinyl]-N-(methylsulfonyl)methanesulfonamide] | < 5 nM
CCCOc1ncc(C#CC(=O)OCC)cc1-c1nc2c(CCC)nn(C)c2c(=O)[nH]1 [Example 72] | < 5 nM
CCCOc1ncc(NC(C)C(=O)OC)cc1-c1nc2c(CCC)nn(C)c2c(=O)[nH]1 (stereo not drawn) [Example 83, Methyl 2-{[5-(1-Methyl-7-oxo-3-propyl-6,7-dihydro-1H-pyrazolo[4,3-d]-pyrimidin-5-yl)-6-propoxy-3-pyridinyl]amino}propanoate] | < 5 nM
CCOc1ncc(I)cc1-c1nc2c(CC)n(CCN(C)C)nc2c(=O)[nH]1 [Example 85, 2-[2-(Dimethylamino)ethyl]-5-(2-ethoxy-5-iodo-3-pyridinyl)-3-ethyl-2,6-dihydro-7H-pyrazolo[4,3-d]pyrimidin-7-one] | < 10 nM
CCCOc1ncc(I)cc1-c1nc2c(CC)n(CC(=O)O)nc2c(=O)[nH]1 [Example 67, [3-Ethyl-5-(5-iodo-2-propoxy-3-pyridinyl)-7-oxo-6,7-dihydro-2H-pyrazolo[4,3-d]pyrimidin-2-yl]acetic Acid] | < 10 nM
CCCOc1ncc(C(C)=O)cc1-c1nc2c(CC)n(C3CCN(C(C)=O)CC3)nc2c(=O)[nH]1 [Example 122, 2-(1-acetyl-4-piperidinyl)-5-(5-acetyl-2-propoxy-3-pyridinyl)-3-ethyl-2,6-dihydro-7H-pyrazolo[4,3-d]pyrimidin-7-one] | < 5 nM
CCCOc1ncc(NCC(=O)O)cc1-c1nc2c(CCC)nn(C)c2c(=O)[nH]1 [Example 75, {[5-(1-Methyl-7-oxo-3-propyl-6,7-dihydro-1H-pyrazolo[4,3-d]pyrimidin-5-yl)-6-propoxy-3-pyridinyl]amino}acetic Acid] | < 10 nM
CCc1c2nc(-c3cc(C(C)=O)cnc3OCC(C)C)[nH]c(=O)c2nn1Cc1ccccn1 [Example 134, 5-(5-Acetyl-2-isobutoxy-3-pyridinyl)-3-ethyl-2-(2-pyridinylmethyl)-2,6-dihydro-7H-pyrazolo[4,3-d]pyrimidin-7-one] | < 5 nM
CCCOc1ncc(C(C)=O)cc1-c1nc2c(CC)nn(CCN3CCOCC3)c2c(=O)[nH]1 [Example 113, 5-(5-Acetyl-2-propoxy-3-pyridinyl)-3-ethyl-1-[2-(4-morpholinyl)ethyl]-1,6-dihydro-7H-pyrazolo[4,3-d]pyrimidin-7-one] | < 5 nM
CCCCOc1ncc(C(C)=O)cc1-c1nc2c(CC)n(C3CCN(C(C)=O)CC3)nc2c(=O)[nH]1 [Example 131, 5-(5-Acetyl-2-butoxy-3-pyridinyl)-2-(1-acetyl-4-piperidinyl)-3-ethyl-2,6-dihydro-7H-pyrazolo[4,3-d]pyrimidin-7-one] | < 5 nM
CCCOc1ncc(NC(=O)CC(=O)O)cc1-c1nc2c(CCC)nn(C)c2c(=O)[nH]1 [Example 79, N-[5-(1-Methyl-7-oxo-3-propyl-6,7-dihydro-1H-pyrazolo[4,3-d]pyrimidin-5-yl)-6-propoxy-3-pyridinyl]-3-oxo-β-alanine] | < 5 nM
CCCc1c2nc(-c3cc(I)cnc3OCC(C)C)[nH]c(=O)c2nn1C [Example 22, 5-(5-Iodo-2-isobutoxy-3-pyridinyl)-2-methyl-3-propyl-2,6-dihydro-7H-pyrazolo[4,3-d]pyrimidin-7-one] | < 10 nM
CCCCOc1ncc(C(C)=O)cc1-c1nc2c(CC)n(C3CCN(C(=O)OC(C)(C)C)CC3)nc2c(=O)[nH]1 [Example 129, tert-Butyl 4-[5-(5-Acetyl-2-butoxy-3-pyridinyl)-3-ethyl-7-oxo-6,7-dihydro-2H-pyrazolo[4,3-d]pyrimidin-2-yl]-1-piperidinecarboxylate] | < 5 nM
CCCc1c2nc(-c3cc(S(C)(=O)=O)cnc3OCC(C)C)[nH]c(=O)c2nn1C [Example 143, 5-[2-Isobutoxy-5-(methylsulfonyl)-3-pyridinyl]-2-methyl-3-propyl-2,6-dihydro-7-H-pyrazolo[4,3-d]pyrimidin-7-one] | < 10 nM
CCOc1ncc(C(C)=O)cc1-c1nc2c(CC)nn(Cc3nccn3C)c2c(=O)[nH]1 [Example 138, 5-(5-Acetyl-2-ethoxy-3-pyridinyl)-3-ethyl-1-[(1-methyl-1H-imidazol-2-yl)methyl]-1,6-dihydro-7H -pyrazolo[4,3-d]pyrimidin-7-one] | < 5 nM
CCCOc1ncc(-c2cc(O)no2)cc1-c1nc2c(CCC)nn(C)c2c(=O)[nH]1 [Example 73, 5-[5-(3-Hydroxy-5-isoxazolyl)-2-propoxy-3-pyridinyl]-1-methyl-3-propyl-1,6-dihydro-7H-pyrazolo[4,3-d]pyrimidin-7-one] | < 5 nM

Structure (SMILES) | IC50
CCCCOc1ncc(I)cc1-c1nc2c(CC)n(CCN3CCOCC3)nc2c(=O)[nH]1 [Example 44a] | < 10 nM
CCCCOc1ncc(C(C)=O)cc1-c1nc2c(CC)n(C3CNC3)nc2c(=O)[nH]1 [Example 50a] | < 10 nM
CCCCOc1ncc(I)cc1-c1nc2c(CC)nn(CCOC)c2c(=O)[nH]1 [Example 20, 5-(2-Butoxy-5-iodo-3pyridinyl)-3-ethyl-1-(2-methoxyethyl)-1,6-dihydro-7H-pyrazolo[4,3-d]pyrimidin-7-one] | < 10 nM
CCCCOc1ncc(C(=O)CN2CCOCC2)cc1-c1nc2c(CC)n(CCOC)nc2c(=O)[nH]1 [Example 34, 5-[2-Butoxy-5-(4-morpholinylacetyl)-3-pyridinyl]-3-ethyl-2-(2-methoxyethyl)-2,6-dihydro-7H-pyrazolo[4,3-d]pyrimidin-7-one] | < 10 nM
CCCOc1ncc(NS(=O)(=O)CC(=O)O)cc1-c1nc2c(CCC)nn(C)c2c(=O)[nH]1 [Example 80, ({[5-(1-Methyl-7-oxo-3-propyl-6,7-dihydro-1H-pyrazolo[4,3-d]pyrimidin-5-yl)-6-propoxy-3-pyridinyl]amino}sulfonyl)acetic Acid] | < 5 nM
CCCOc1ncc(NC(C)=O)cc1-c1nc2c(CCC)nn(C)c2c(=O)[nH]1 [Example 92, N-[6-(Propoxy)-5-(1-methyl-7-oxo-3-propyl-6,7-dihydro-1H-pyrazolo[4,3-d]pyrimidin-5-yl)-3-pyridinyl]acetamide] | < 5 nM
CCCOc1ncc(NS(C)(=O)=O)cc1-c1nc2c(CCC)nn(C)c2c(=O)[nH]1 [Example 77, N-[5-(1-Methyl-7-oxo-3-propyl-6,7-dihydro-1H-pyrazolo[4,3-d]pyrimidin-5-yl)-6-propoxy-3-pyridinyl]methanesulfonamide] | < 5 nM
CCCOc1ncc(I)cc1-c1nc2c(CC)n(CC(=O)OC(C)(C)C)nc2c(=O)[nH]1 [Example 65, tert-butyl [3-ethyl-5-(5-iodo-2-propoxy-3-pyridinyl)-7-oxo-6,7-dihydro-2H-pyrazolo[4,3-d]-pyrimidin-2-yl]acetate] | < 5 nM
CCCCOc1ncc(C(=O)N(C)OC)cc1-c1nc2c(CC)n(CCOC)nc2c(=O)[nH]1 [Example 5, 6-Butoxy-5-[3-ethyl-2-(2-methoxyethyl)-7-oxo-6,7-dihydro-2H-pyrazolo[4,3-d]pyrimidin-5-yl]-N-methoxy-N-methylnicotinamide] | < 10 nM
CCCOc1ncc(I)cc1-c1nc2c(CC)nn(CC(=O)O)c2c(=O)[nH]1 [Example 66, [3-Ethyl-5-(5-iodo-2-propoxy-3-pyridinyl)-7-oxo-6,7-dihydro-1H-pyrazolo[4,3-d]pyrimidin-1-yl]acetic Acid] | < 10 nM
CCCOc1ncc(NCC(=O)OC)cc1-c1nc2c(CCC)nn(C)c2c(=O)[nH]1 [Example 82, Methyl {[5-(1-Methyl-7-oxo-3-propyl-6,7-dihydro-1H-pyrazolo[4,3-d]pyrimidin-5-yl)-6-propoxy-3-pyridinyl]amino}acetate] | < 5 nM
CCCCOc1ncc(I)cc1-c1nc2c(CC)n(C3CCN(C(=O)OC(C)(C)C)CC3)nc2c(=O)[nH]1 [Example 44b] | < 10 nM
CCCCOc1ncc(C(C)=O)cc1-c1nc2c(CC)nn(CCOC)c2c(=O)[nH]1 [Example 21, 5-(5-Acetyl-2-butoxy-3-pyridinyl)-3-ethyl-1-(2-methoxyethyl)-1,6-dihydro-7H-pyrazolo[4,3-d]pyrimidin-7-one] | < 10 nM
CCCOc1ncc(N2CCN(S(=O)(=O)c3ccc(C)cc3)CC2)cc1-c1nc2c(CCC)nn(C)c2c(=O)[nH]1 [Example 81, 1-Methyl-5-(5-{4-[(4-methylphenyl)sulfonyl]-1-piperazinyl}-2-propoxy-3-pyridinyl)-3-propyl-1,6-dihydro-7H-pyrazolo[4,3-d]pyrimidin-7-one] | < 5 nM
COCCOc1ncc(C(C)=O)cc1-c1nc2c(-c3ccc(N(C)C)nc3)n(C)nc2c(=O)[nH]1 [Example 140, 5-[5-Acetyl-2-(2-methoxyethoxy)-3-pyridinyl]-3-[6-(dimethylamino)-3-pyridinyl]-2-methyl-2,6-dihydro-7H-pyrazolo[4,3-d]pyrimidin-7-one] | < 5 nM
CCCCOc1ncc(C(C)=O)cc1-c1nc2c(CC)n(CC3CC3)nc2c(=O)[nH]1 [Example 127] | < 5 nM
CCOc1ncc(C(C)=O)cc1-c1nc2c(-c3ccc(N(C)C)nc3)n(C)nc2c(=O)[nH]1 [Example 59, 5-(5-Acetyl-2-ethoxy-3-pyridinyl)-3-[6-(dimethylamino)-3-pyridinyl]-2-methyl-2,6-dihydro-7H-pyrazolo[4,3-d]pyrimidin-7-one] | < 5 nM
CCCc1c2nc(-c3cc(C(=O)N(C)C)cnc3OCC(C)C)[nH]c(=O)c2nn1C [Example 26, 6-Isobutoxy-N,N-dimethyl-5-(2-methyl-7-oxo-3-propyl-6,7-dihydro-2H-pyrazolo[4,3-d]pyrimidin-5-yl)nicotinamide] | < 10 nM
